Results on 2 molecules are retold here after article PMC12444171, “Chromatin remodeler BRD9 represses transcription of PPARα target genes, including CPT1A to suppress lipid metabolism” (Journal of Lipid Research, 2025).

Amino acid sequences for entries named in this document (tags omitted).
UniProt Q9H8M2: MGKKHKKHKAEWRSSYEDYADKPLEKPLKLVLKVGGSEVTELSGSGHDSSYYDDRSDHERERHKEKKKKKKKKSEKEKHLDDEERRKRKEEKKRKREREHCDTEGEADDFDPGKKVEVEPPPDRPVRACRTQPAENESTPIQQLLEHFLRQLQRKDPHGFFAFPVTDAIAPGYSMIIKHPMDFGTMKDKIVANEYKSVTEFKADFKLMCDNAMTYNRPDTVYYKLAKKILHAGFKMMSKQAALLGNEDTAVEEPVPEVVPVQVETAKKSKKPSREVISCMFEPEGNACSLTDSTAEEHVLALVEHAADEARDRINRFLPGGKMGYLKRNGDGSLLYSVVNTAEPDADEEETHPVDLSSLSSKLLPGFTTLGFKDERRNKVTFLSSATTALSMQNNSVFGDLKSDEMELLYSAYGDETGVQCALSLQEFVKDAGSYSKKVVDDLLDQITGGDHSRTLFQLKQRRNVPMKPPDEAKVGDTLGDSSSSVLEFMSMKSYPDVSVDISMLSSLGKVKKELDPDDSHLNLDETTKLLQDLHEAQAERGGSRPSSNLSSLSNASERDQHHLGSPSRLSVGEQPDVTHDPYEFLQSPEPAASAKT

In assay [1] the target is T1, FLAG-PPARα (peroxisome proliferator-activated receptor α with 3×FLAG) (human) (UniProt Q07869).
T1 sequence (chain, acetylated lysine residue(s), positions not stated): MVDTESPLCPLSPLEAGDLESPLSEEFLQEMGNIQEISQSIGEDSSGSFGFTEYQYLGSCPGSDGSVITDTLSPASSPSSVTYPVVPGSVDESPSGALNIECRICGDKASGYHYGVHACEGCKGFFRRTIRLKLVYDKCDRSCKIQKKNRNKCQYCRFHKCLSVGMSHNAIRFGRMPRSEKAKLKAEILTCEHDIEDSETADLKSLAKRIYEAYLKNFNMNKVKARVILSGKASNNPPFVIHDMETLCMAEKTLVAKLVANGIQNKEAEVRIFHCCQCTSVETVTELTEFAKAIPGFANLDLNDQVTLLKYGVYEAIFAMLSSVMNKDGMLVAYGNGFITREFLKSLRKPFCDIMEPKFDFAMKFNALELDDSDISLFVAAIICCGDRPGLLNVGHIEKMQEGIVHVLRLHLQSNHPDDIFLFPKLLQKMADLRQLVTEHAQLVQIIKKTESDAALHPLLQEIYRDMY
Briefly: pull-down; FLAG-PPARα captured from HEK293T lysate on anti-FLAG antibody-Dynabeads Protein G and washed, then incubated with purified BRD7-His or BRD9-His for 12 h at 4°C; Western blot; both purified. (In general: In western blotting, separated proteins are transferred to a membrane and probed.)

In assay [2] the target is BRD9-His (bromodomain-containing protein 9 with His tag) (human) (UniProt Q9H8M2). Briefly: co-IP; HEK293T cells co-transfected with FLAG-PPARα and BRD7-His or BRD9-His; lysate (0.3 M NaCl, 0.5% NP-40, pH 8.0) on anti-His tag antibody-Dynabeads Protein G, 2 h at room temperature; Western blot; in Fig. 5C the cells were treated with 30 μM WY-14643 and/or 40 μM BI-9564 for 48 h (interaction markedly attenuated).

Results are given in words; binding and its absence hold for the method and conditions named. For some assays here: Binding seen in cells or lysates may run through a third protein. Some entries that bind do so weakly or less than the wild type. Tags and fused reporters may be left off the sequences shown.

For “BRD9-His (bromodomain-containing protein 9 with His tag) (from UniProt Q9H8M2 1-597)”, in assay [1], the binding result is recorded as “binds”.

B1: FLAG-PPARα (peroxisome proliferator-activated receptor α with 3×FLAG) (natural protein, human, UniProt Q07869 1-468, looked up)
chain: MVDTESPLCPLSPLEAGDLESPLSEEFLQEMGNIQEISQSIGEDSSGSFGFTEYQYLGSCPGSDGSVITDTLSPASSPSSVTYPVVPGSVDESPSGALNIECRICGDKASGYHYGVHACEGCKGFFRRTIRLKLVYDKCDRSCKIQKKNRNKCQYCRFHKCLSVGMSHNAIRFGRMPRSEKAKLKAEILTCEHDIEDSETADLKSLAKRIYEAYLKNFNMNKVKARVILSGKASNNPPFVIHDMETLCMAEKTLVAKLVANGIQNKEAEVRIFHCCQCTSVETVTELTEFAKAIPGFANLDLNDQVTLLKYGVYEAIFAMLSSVMNKDGMLVAYGNGFITREFLKSLRKPFCDIMEPKFDFAMKFNALELDDSDISLFVAAIICCGDRPGLLNVGHIEKMQEGIVHVLRLHLQSNHPDDIFLFPKLLQKMADLRQLVTEHAQLVQIIKKTESDAALHPLLQEIYRDMY
modifications: acetylated lysine residue(s), positions not given
notes: the sites are not mapped; source: HEK293T, transfected (pcDNA3.1), in lysate; for the pull-down captured from lysate on anti-FLAG antibody-Dynabeads Protein G and washed; not shown: 3×FLAG, N-terminal, kept
Regarding B1, in assay [2], the binding result is reported as “binds”.
